# Data as given in the supplement of paper PMC12889115.
# This is one part of the list. These are raw signals, not scaled to a control.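 In the initial screen, polymyxin B was used at a concentration that permeabilizes Salmonella's outer membrane but not its inner membrane. Maximum growth was set by DMSO wells with or without polymyxin B. Since plates varied, data were ranked per plate, and compounds giving the lowest OD600 advanced as hits.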
# System: Salmonella enterica serovar Typhimurium SL1344
# Experiment: bacterial growth OD600 after 18 h with compound and polymyxin B; higher = more bacterial growth (less inhibition)
# Conditions: 50 µM, Mueller-Hinton broth
SMILES,bacterial growth OD600 (polymyxin B 1 µg/mL),bacterial growth OD600 (polymyxin B 0.75 µg/mL)
CSCCC(=O)N1CCc2ccc(NC(=O)CCc3ccc(C)cc3)cc2C1,1.08,–
COc1ccc(OC2CCN(C(=O)C3CC3)CC2)c(C(=O)NCCC2=CCCCC2)c1,0.013,–
CO[C@H]1[C@H](NC(=O)c2ccco2)c2ccccc2C12CCN(Cc1c[nH]nc1C1CCCCC1)CC2,–,0.827
CCCCNC(=O)C1CCCN(c2nc(C)c3ccc(OC)cc3n2)C1 (stereo unspecified),–,0.738
COc1ccc(Cl)cc1NC(=O)CCC1CCCN(C(=O)Cn2cccn2)C1 (stereo unspecified),0.864,–
COc1cc(CN2CCCC(c3ccnc(SCCN4CCCC4)n3)C2)ccc1F (stereo unspecified),–,0.746
COc1cccc(C2CCCN2C(=O)c2cn(Cc3ccc(F)cc3)nn2)c1 (stereo unspecified),0.855,–
COc1ccc(CN2CCOc3ccc(C(O)Cc4ccccc4)cc3C2)cc1OC (stereo unspecified),–,0.725
O=C(CC1CCCCC1)Nc1nc2c(s1)C(=O)CC(C(=O)N1CCCCC1c1cccnc1)C2 (stereo unspecified),–,0.855
CCNCC1(O)CCCN(Cc2ccc(F)c(F)c2)C1=O (stereo unspecified),1.02,–
O[C@@H]1CN(Cc2sc3ccccc3c2Cl)CC[C@H]1N1CCN(c2ccccn2)CC1,1.04,–
O=C(c1ccccc1)C1CCN(C(=O)C2CCC(=O)N(C3CC3)C2)CC1 (stereo unspecified),0.866,–
O=C(c1cc(C(F)(F)F)ccc1Cl)N1CC[C@@H](N2CCC(O)CC2)[C@H](O)C1,0.942,–
COc1ccc(CC2(CO)CCN(Cc3cc(C)c(C)cc3C)CC2)cc1,0.837,–
Cc1nonc1CN(C)C(=O)c1cc(NC(=O)CC2CCCC2)cc2nc(C3CCCO3)n(C)c12 (stereo unspecified),–,0.862
COc1ccccc1CCN1CCCC(CN(C)C(=O)CCc2ccccn2)C1 (stereo unspecified),0.97,–

# 2 records drawn at random from those above:
SMILES,bacterial growth OD600 (polymyxin B 1 µg/mL),bacterial growth OD600 (polymyxin B 0.75 µg/mL)
CSCCC(=O)N1CCc2ccc(NC(=O)CCc3ccc(C)cc3)cc2C1,1.08,–
COc1cccc(C2CCCN2C(=O)c2cn(Cc3ccc(F)cc3)nn2)c1 (stereo unspecified),0.855,–

# The results go on.

SMILES,bacterial growth OD600 (polymyxin B 1 µg/mL),bacterial growth OD600 (polymyxin B 0.75 µg/mL)
C[C@@H]1CN(C(=O)c2nc3sccn3c2CN(C)Cc2ccc3ccccc3n2)C[C@H](C)O1,0.89,–
CN(C)S(=O)(=O)NC1CC(=O)N(CCc2ccccc2)C1 (stereo unspecified),0.954,–
CN(CC1CCCN(CCc2ccccc2F)C1)C(=O)C1CCCCC1 (stereo unspecified),0.882,–
COc1ccccc1Oc1ncccc1CNC(=O)C(C)n1cncn1 (stereo unspecified),1.01,–
CN(CCc1cnn(C)c1)Cc1nc(Cc2cccc(C(F)(F)F)c2)no1,0.85,–
COCCC(=O)Nc1cc(C(=O)N2CCOc3ccccc3C2)cc2nc(-c3ccccc3)n(C)c12,–,0.87
CCNCc1ccc(OC)c(OCC(O)CN(C)C(C)C)c1 (stereo unspecified),–,0.844
COc1cc(CC2(CCC(=O)N3CCN(Cc4ccc(C)cc4)C(=O)C3)CCC(=O)N2)ccc1F (stereo unspecified),–,0.811
CCOc1ccc([C@@H]2C[C@H]3CN(Cc4cccc(Cl)c4)C(=O)[C@]34CCCN24)cc1,–,0.669
Cc1ccoc1C(=O)NC1CC(=O)N(C2CCCCCC2)C1 (stereo unspecified),0.917,–
CCCc1cc(CNC(=O)c2ccc(NC)nc2)on1,0.94,–
CC#CCN(Cc1ccco1)Cc1c[nH]nc1-c1ccc(OC)cc1F,0.977,–
O=C(CCC1CCN(C(=O)c2ccoc2)CC1)N1CCC(Cc2ccccc2)CC1,1.05,–
COc1cccc(CCNC(=O)c2ccc(OC3CCN(C(C)=O)CC3)c(OC)c2)c1,0.984,–
CCN(CC)CCN(CC)C(=O)CCc1nnc(CCc2ccccc2OC)o1,1.08,–
